# In article doi:10.1101/2024.05.24.595750:
# These are yes or no findings as the source states them, for the method shown. In cells and extracts the contact can be indirect. A yes stands for co-enrichment or nearness to the bait. Other partners may have been found. Sequences can lack the tags named with a protein.
# T1: C-terminal Flag-tagged wild-type human full-length eNOS (human) (UniProt P29474)
# T1 sequence: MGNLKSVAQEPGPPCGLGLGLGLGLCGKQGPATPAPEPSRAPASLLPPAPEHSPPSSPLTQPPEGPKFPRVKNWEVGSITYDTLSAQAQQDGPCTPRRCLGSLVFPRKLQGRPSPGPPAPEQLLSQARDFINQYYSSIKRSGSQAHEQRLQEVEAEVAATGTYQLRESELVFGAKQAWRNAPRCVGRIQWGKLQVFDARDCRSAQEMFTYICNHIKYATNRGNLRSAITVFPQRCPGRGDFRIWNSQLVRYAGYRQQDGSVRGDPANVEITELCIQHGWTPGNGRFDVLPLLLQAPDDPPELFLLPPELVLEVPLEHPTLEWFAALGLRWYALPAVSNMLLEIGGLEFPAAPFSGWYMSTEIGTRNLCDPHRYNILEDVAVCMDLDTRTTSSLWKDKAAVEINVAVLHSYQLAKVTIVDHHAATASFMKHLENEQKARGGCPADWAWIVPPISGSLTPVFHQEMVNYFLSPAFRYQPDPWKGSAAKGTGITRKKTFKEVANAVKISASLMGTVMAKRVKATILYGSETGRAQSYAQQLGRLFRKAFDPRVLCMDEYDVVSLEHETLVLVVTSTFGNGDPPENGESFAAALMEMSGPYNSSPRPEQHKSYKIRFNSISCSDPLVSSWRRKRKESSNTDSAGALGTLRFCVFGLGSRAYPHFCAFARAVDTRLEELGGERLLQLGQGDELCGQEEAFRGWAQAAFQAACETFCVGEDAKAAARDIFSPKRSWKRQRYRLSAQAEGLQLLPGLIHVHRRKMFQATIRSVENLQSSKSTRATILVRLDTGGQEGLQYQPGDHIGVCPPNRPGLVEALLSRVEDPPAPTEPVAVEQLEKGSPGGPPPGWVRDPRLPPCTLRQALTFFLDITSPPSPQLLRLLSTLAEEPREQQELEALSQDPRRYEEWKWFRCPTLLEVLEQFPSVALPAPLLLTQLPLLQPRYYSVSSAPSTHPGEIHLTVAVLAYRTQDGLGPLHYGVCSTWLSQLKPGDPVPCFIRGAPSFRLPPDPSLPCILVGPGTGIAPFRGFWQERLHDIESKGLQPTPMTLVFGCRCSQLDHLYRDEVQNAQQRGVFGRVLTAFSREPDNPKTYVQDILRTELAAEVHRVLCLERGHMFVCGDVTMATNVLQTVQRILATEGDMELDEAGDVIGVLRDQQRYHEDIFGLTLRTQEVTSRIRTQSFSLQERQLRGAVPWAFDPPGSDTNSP
# B1: double-stranded RNA-specific adenosine deaminase (ADAR1), human, endogenous (enzyme, UniProt P55265 1-1226)
# chain: MNPRQGYSLSGYYTHPFQGYEHRQLRYQQPGPGSSPSSFLLKQIEFLKGQLPEAPVIGKQTPSLPPSLPGLRPRFPVLLASSTRGRQVDIRGVPRGVHLRSQGLQRGFQHPSPRGRSLPQRGVDCLSSHFQELSIYQDQEQRILKFLEELGEGKATTAHDLSGKLGTPKKEINRVLYSLAKKGKLQKEAGTPPLWKIAVSTQAWNQHSGVVRPDGHSQGAPNSDPSLEPEDRNSTSVSEDLLEPFIAVSAQAWNQHSGVVRPDSHSQGSPNSDPGLEPEDSNSTSALEDPLEFLDMAEIKEKICDYLFNVSDSSALNLAKNIGLTKARDINAVLIDMERQGDVYRQGTTPPIWHLTDKKRERMQIKRNTNSVPETAPAAIPETKRNAEFLTCNIPTSNASNNMVTTEKVENGQEPVIKLENRQEARPEPARLKPPVHYNGPSKAGYVDFENGQWATDDIPDDLNSIRAAPGEFRAIMEMPSFYSHGLPRCSPYKKLTECQLKNPISGLLEYAQFASQTCEFNMIEQSGPPHEPRFKFQVVINGREFPPAEAGSKKVAKQDAAMKAMTILLEEAKAKDSGKSEESSHYSTEKESEKTAESQTPTPSATSFFSGKSPVTTLLECMHKLGNSCEFRLLSKEGPAHEPKFQYCVAVGAQTFPSVSAPSKKVAKQMAAEEAMKALHGEATNSMASDNQPEGMISESLDNLESMMPNKVRKIGELVRYLNTNPVGGLLEYARSHGFAAEFKLVDQSGPPHEPKFVYQAKVGGRWFPAVCAHSKKQGKQEAADAALRVLIGENEKAERMGFTEVTPVTGASLRRTMLLLSRSPEAQPKTLPLTGSTFHDQIAMLSHRCFNTLTNSFQPSLLGRKILAAIIMKKDSEDMGVVVSLGTGNRCVKGDSLSLKGETVNDCHAEIISRRGFIRFLYSELMKYNSQTAKDSIFEPAKGGEKLQIKKTVSFHLYISTAPCGDGALFDKSCSDRAMESTESRHYPVFENPKQGKLRTKVENGEGTIPVESSDIVPTWDGIRLGERLRTMSCSDKILRWNVLGLQGALLTHFLQPIYLKSVTLGYLFSQGHLTRAICCRVTRDGSAFEDGLRHPFIVNHPKVGRVSIYDSKRQSGKTKETSVNWCLADGYDLEILDGTRGTVDGPRNELSRVSKKNIFLLFKKLCSFRYRRDLLRLSYGEAKKAARDYETAKNYFKKGLKDMGYGNWISKPQEEKNFYLCPV
# Target: T1, C-terminal Flag-tagged wild-type human full-length eNOS (human)
# Experiment: affinity purification with mass spectrometry
binder,measurement,value
B1,binding,binds
